In publication PMC10920667:
No constants are given. Whether binding was seen depends on the method and setting. In cells and extracts the contact can be indirect. Some entries that bind do so weakly or less than the wild type.

By UniProt entry, the sequences of proteins in these tests, tags left out.
UniProt P01106: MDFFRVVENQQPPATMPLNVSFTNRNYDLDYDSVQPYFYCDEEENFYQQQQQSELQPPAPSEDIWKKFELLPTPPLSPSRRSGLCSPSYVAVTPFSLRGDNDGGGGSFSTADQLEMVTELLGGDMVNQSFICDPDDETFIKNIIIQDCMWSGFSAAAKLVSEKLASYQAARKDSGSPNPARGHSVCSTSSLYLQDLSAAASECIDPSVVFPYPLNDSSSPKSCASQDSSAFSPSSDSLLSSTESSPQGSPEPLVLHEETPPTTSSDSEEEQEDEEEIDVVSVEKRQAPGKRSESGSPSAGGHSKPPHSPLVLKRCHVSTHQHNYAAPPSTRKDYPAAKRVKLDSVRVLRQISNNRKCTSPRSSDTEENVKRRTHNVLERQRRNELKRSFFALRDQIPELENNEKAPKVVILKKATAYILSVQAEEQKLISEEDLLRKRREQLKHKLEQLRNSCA
UniProt Q969H0: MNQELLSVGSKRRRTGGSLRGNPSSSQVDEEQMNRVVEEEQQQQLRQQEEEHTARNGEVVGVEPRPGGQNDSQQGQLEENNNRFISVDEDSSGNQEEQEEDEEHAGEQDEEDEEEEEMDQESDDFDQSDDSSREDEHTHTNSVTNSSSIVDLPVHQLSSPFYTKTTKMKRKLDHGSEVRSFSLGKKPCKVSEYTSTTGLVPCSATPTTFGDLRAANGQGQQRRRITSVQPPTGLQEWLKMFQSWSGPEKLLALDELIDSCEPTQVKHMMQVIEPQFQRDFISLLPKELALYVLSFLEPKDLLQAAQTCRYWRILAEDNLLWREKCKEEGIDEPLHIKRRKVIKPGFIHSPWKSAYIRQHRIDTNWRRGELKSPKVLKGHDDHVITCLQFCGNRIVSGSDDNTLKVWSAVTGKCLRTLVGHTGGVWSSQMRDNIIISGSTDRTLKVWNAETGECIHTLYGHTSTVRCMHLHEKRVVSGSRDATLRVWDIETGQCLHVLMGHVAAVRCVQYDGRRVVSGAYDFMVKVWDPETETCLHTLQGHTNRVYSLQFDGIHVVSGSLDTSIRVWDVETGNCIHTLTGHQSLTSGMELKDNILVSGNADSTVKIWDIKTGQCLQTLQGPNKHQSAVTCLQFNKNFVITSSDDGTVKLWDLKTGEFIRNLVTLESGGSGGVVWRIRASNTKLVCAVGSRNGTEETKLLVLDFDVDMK

Experiments:
[1] = biological target: c-Myc (human (endogenous in H1299)) (UniProt P01106); assay: co-IP; endogenous proteins precipitated from H1299 cells with CPT1A or c-Myc antibody, western blot; also in H1299-shNC/shCPT1A cells (CPT1A knock-down; siFBXW7 or control siRNA)
[2] = biological target: T1, Carnitine palmitoyl transferase 1A (human (endogenous in H1299)) (UniProt P50416); assay: as above
T1 sequence: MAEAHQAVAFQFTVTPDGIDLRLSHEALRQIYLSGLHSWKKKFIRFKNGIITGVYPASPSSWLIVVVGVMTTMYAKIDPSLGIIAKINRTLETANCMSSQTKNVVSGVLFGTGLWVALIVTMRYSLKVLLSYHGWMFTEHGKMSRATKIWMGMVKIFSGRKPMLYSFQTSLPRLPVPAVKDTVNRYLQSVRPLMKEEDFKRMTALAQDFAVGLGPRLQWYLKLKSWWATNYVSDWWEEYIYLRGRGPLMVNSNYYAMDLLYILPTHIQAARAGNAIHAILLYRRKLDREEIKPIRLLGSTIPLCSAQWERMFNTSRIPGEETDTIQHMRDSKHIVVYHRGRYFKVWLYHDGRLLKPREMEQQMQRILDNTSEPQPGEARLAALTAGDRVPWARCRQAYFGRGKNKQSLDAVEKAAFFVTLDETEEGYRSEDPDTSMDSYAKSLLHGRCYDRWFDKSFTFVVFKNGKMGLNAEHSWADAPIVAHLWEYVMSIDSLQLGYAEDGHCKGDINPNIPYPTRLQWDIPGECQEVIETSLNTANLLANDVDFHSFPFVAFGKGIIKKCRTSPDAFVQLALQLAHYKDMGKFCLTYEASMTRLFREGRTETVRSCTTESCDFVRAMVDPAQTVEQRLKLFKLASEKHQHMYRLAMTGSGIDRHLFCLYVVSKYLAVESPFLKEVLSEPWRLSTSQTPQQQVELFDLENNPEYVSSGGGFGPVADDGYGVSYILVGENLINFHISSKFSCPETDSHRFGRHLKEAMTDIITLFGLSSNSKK

Substance | binding [1] | binding [2]
FBXW7 (from UniProt Q969H0 1-707) | binds | 
c-Myc (from UniProt P01106 1-454) |  | binds
